The values that follow come from the supplement of paper PMC8732350.

Where a name gives a salt, the structure may show the parent alone. ± gives the standard deviation of the averaged measurements. The list shows a part of the results. Most values lie within the scatter of the assay; repeated measurements hardly agree.

In this assay the test system is A549. Briefly: surface PD-L1 immunofluorescence intensity relative to IFN-gamma-only control (ratio); higher = more PD-L1 expression. As to conditions: 10 µM; exposure time 24 h; IFN-gamma 100 ng/mL.
Regarding `CN[C@@H]1[C@@H](O)[C@@H](O[C@@H]2[C@@H](O)[C@H](O[C@H]3OC(CN)=CC[C@H]3N)[C@@H](N)C[C@H]2N)OC[C@]1(C)O` [Sisomicin sulfate], the “surface PD-L1 immunofluorescence intensity” value was determined as 1.04.

Regarding `Cc1cc(NS(=O)(=O)c2ccc(N)cc2)no1` [Sulfamethoxazole], the “surface PD-L1 immunofluorescence intensity” value was determined as 1.01.

With `O=C1CN(/N=C/c2ccc(-c3ccc([N+](=O)[O-])cc3)o2)C(=O)N1` [Dantrolene, sodium salt], the “surface PD-L1 immunofluorescence intensity” value turned out to be 1.04.

Consider `O=C1CN(/N=C/c2ccc(-c3ccc([N+](=O)[O-])cc3)o2)C(=O)N1` [Dantrolene sodium salt], for which the “surface PD-L1 immunofluorescence intensity” value turned out to be 0.971.

On to `O=C1CN(/N=C/c2ccc(-c3ccc([N+](=O)[O-])cc3)o2)C(=O)N1` [Dantrolene], for which the “surface PD-L1 immunofluorescence intensity” value turned out to be 0.998.

Consider `COc1cc(O)c2c(c1)C(=O)c1cc(C)cc(O)c1C2=O` [Rheochrysidin (Physcione)], for which the “surface PD-L1 immunofluorescence intensity” value turned out to be 1.15.

Turning to `CCOC(=O)n1ccn(C)c1=S` [Carbimazole], the “surface PD-L1 immunofluorescence intensity” value amounted to 0.976.

With `CC1(C)O[C@@H]2C[C@H]3[C@@H]4CCC5=CC(=O)C=C[C@]5(C)[C@H]4[C@@H](O)C[C@]3(C)[C@]2(C(=O)CO)O1` [Desonide], the “surface PD-L1 immunofluorescence intensity” value came to 0.82.

For the compound `NCCCCCNCC12CC3CC(CC(C3)C1)C2` [IEM 1754 dihydrobroMide], the “surface PD-L1 immunofluorescence intensity” value was 1.04.

On to `CC[C@H]1OC(=O)C[C@@H](O)[C@H](C)[C@@H](O[C@@H]2O[C@H](C)[C@@H](O[C@H]3C[C@@](C)(O)[C@@H](O)[C@H](C)O3)[C@H](N(C)C)[C@H]2O)[C@@H](CC=O)C[C@@H](C)C(=O)/C=C/C(C)=C/[C@@H]1CO[C@@H]1O[C@H](C)[C@@H](O)[C@@H](OC)[C@H]1OC` [Tylosin], for which the “surface PD-L1 immunofluorescence intensity” value stood at 1.02.

As to `CC[C@H]1OC(=O)C[C@@H](O)[C@H](C)[C@@H](O[C@@H]2O[C@H](C)[C@@H](O[C@H]3C[C@@](C)(O)[C@@H](O)[C@H](C)O3)[C@H](N(C)C)[C@H]2O)[C@@H](CC=O)C[C@@H](C)C(=O)/C=C/C(C)=C/[C@@H]1CO[C@@H]1O[C@H](C)[C@@H](O)[C@@H](OC)[C@H]1OC` [Tylosin tartrate], the “surface PD-L1 immunofluorescence intensity” value was determined as 0.92.

With `O=C(/C=C/c1ccc(O)c(O)c1)c1ccc(O)cc1O` [Butein], the “surface PD-L1 immunofluorescence intensity” value is 0.978 ± 0.043.

As to `CCNC(=O)CCC/C=C\C[C@@H]1[C@@H](/C=C/[C@@H](O)CCc2ccccc2)[C@H](O)C[C@@H]1O` [Bimatoprost], the “surface PD-L1 immunofluorescence intensity” value stood at 1.09.

As to `Cc1ccc(NC(=O)c2cccc(N(C)C)c2)cc1NC(=O)c1ccc(O)cc1`, the “surface PD-L1 immunofluorescence intensity” value turned out to be 1.23.

Turning to `C[C@]12C[C@H](O)[C@H]3[C@@H](CCC4=CC(=O)CC[C@@]43C)[C@@H]1CC[C@@H]2C(=O)CO` [Corticosterone], the “surface PD-L1 immunofluorescence intensity” value was 0.909.

With `Nc1c2c(nc3ccccc13)CCCC2` [Tacrine hydrochloride], the “surface PD-L1 immunofluorescence intensity” value came to 1.09 ± 0.065.

For `O=c1sn(-c2cccc3ccccc23)c(=O)n1Cc1ccccc1` [Tideglusib], the “surface PD-L1 immunofluorescence intensity” value stood at 0.96.

As to `O=c1cc(-c2ccccc2)oc2cc(O)cc(O)c12` [Chrysin], the “surface PD-L1 immunofluorescence intensity” value is 1.08.

Turning to `Cc1cc(OCCCS(C)(=O)=O)cc(C)c1-c1cccc(COc2ccc3c(c2)OC[C@H]3CC(=O)O)c1`, the “surface PD-L1 immunofluorescence intensity” value is 0.996.

Regarding `C=C[C@@]1(C)CC(=O)[C@]2(O)[C@@]3(C)[C@@H](O)CCC(C)(C)[C@@H]3[C@H](O)[C@H](OC(C)=O)[C@@]2(C)O1` [Forskolin], the “surface PD-L1 immunofluorescence intensity” value was 1.03 ± 0.034.

As to `C/C(=C(\CCOP(=O)(O)O)SC(=O)c1ccccc1)N(C=O)Cc1cnc(C)nc1N` [Benfotiamine], the “surface PD-L1 immunofluorescence intensity” value stood at 1.09.

As for `COc1ccc([C@@H]2CC(=O)c3c(O)cc(O[C@@H]4O[C@H](CO[C@@H]5O[C@@H](C)[C@H](O)[C@@H](O)[C@H]5O)[C@@H](O)[C@H](O)[C@H]4O)cc3O2)cc1O` [Hesperidin], the “surface PD-L1 immunofluorescence intensity” value was found to be 0.964 ± 0.093.

For the compound `NC(N)=S` [Thiourea], the “surface PD-L1 immunofluorescence intensity” value was 0.95.

For `O=c1cc(N2CCOCC2)oc2c(-c3cccc4c3sc3ccccc34)cccc12`, the “surface PD-L1 immunofluorescence intensity” value is 0.981.

On to `CC(C)(C(=O)O)c1ccc(C(O)CCCN2CCC(C(O)(c3ccccc3)c3ccccc3)CC2)cc1` (stereo not drawn) [Fexofenadine hydrochloride], for which the “surface PD-L1 immunofluorescence intensity” value stood at 1.04.

For the compound `CC(C)(C(=O)O)c1ccc(C(O)CCCN2CCC(C(O)(c3ccccc3)c3ccccc3)CC2)cc1` (stereo not drawn) [Fexofenadine HCl], the “surface PD-L1 immunofluorescence intensity” value was 1.01.

In the case of `CN(C)CCCN1c2ccccc2Sc2ccccc21` [Promazine hydrochloride], the “surface PD-L1 immunofluorescence intensity” value worked out at 0.984.

Take `Cc1cc(C(C)(C)C)c(O)c(C)c1CC1=NCCN1` [Oxymetazoline hydrochloride]: the “surface PD-L1 immunofluorescence intensity” value turned out to be 1.03 ± 0.026.

Consider `NS(=O)(=O)c1cc(C(=O)O)cc(N2CCCC2)c1Oc1ccccc1` [Piretanide], for which the “surface PD-L1 immunofluorescence intensity” value was 1.05.

As for `O=C[C@H](O)[C@@H](O)[C@H](O)CO` [Xylose], the “surface PD-L1 immunofluorescence intensity” value was determined as 1.03.

Take `O=C(O)COc1ccc(OCCNC[C@H](O)COc2ccccc2)cc1` [ICI 215,001 hydrochloride]: the “surface PD-L1 immunofluorescence intensity” value is 1.01.

Turning to `COC(=O)C[C@H](NC(=O)[C@H](C)NC(=O)[C@@H](NC(=O)OCc1ccccc1)C(C)C)C(=O)CF`, the “surface PD-L1 immunofluorescence intensity” value amounted to 1.08.

Consider `CC(=O)Nc1ccccc1` [Acetanilide (Antifebrin)], for which the “surface PD-L1 immunofluorescence intensity” value came to 1.06.

In the case of `C[N+]1(C)[C@@H]2C[C@@H](OC(=O)C(O)(c3cccs3)c3cccs3)C[C@H]1[C@@H]1O[C@@H]12` [Tiotropium Bromide hydrate], the “surface PD-L1 immunofluorescence intensity” value was found to be 1.01.

As for `CSc1ccc2c(c1)C(N1CCN(C)CC1)Cc1ccccc1S2` (stereo not drawn) [Methiothepin maleate], the “surface PD-L1 immunofluorescence intensity” value was found to be 0.914 ± 0.01.

As for `CC(C(=O)O)c1ccc2c(c1)Cc1cccnc1O2` (stereo not drawn) [Pranoprofen], the “surface PD-L1 immunofluorescence intensity” value worked out at 1.05.

As for `Cc1ccc(O)c(N=Nc2ccccc2)n1`, the “surface PD-L1 immunofluorescence intensity” value is 1.02.

`Cc1c(C)c2c(c(C)c1O)CCC(C)(COc1ccc(CC3SC(=O)NC3=O)cc1)O2` (stereo not drawn) [Troglitazone]: the “surface PD-L1 immunofluorescence intensity” value was 0.965 ± 0.047.

Consider `C[N+]1(C)[C@@H]2CC[C@H]1C[C@@H](OC(=O)C(O)c1ccccc1)C2` (stereo partly drawn) [Homatropine Methylbromide], for which the “surface PD-L1 immunofluorescence intensity” value worked out at 1.03.

As for `COC(c1ccccc1)(c1ccccc1)[C@H](Oc1nc(C)cc(C)n1)C(=O)O` [Ambrisentan], the “surface PD-L1 immunofluorescence intensity” value was 1.1 ± 0.041.

Turning to `COC(=O)C1=C(C)NC(C)=C(C(=O)OCCN2CCN(C(c3ccccc3)c3ccccc3)CC2)C1c1cccc([N+](=O)[O-])c1` (stereo not drawn) [Manidipine (Manyper)], the “surface PD-L1 immunofluorescence intensity” value turned out to be 1.13.

For the compound `Cc1cc2c(cc1S(N)(=O)=O)S(=O)(=O)CCC2` [Meticrane], the “surface PD-L1 immunofluorescence intensity” value was 0.86.

For `Clc1cnccn1` [2-Chloropyrazine], the “surface PD-L1 immunofluorescence intensity” value was found to be 0.975.
